Data published in publication PMC4176598.
Where a protein sequence is shown, tags need not be part of it.

Molecular target: T1, His-FLAG-Zur (Caulobacter crescentus NA1000) (UniProt Q9AB74)
T1 sequence (looked up): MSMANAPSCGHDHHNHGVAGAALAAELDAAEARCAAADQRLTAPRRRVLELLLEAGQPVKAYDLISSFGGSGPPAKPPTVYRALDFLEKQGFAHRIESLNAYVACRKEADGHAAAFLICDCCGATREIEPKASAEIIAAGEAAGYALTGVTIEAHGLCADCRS
Test: EMSA
Conditions: 0.1 mM MnCl2, shift from 25 nM Zur, the lowest concentration; 10 mM Tris-HCl pH 7.5, 40 mM KCl, 1 mM MgCl2, 1 mM DTT, 0.1 mM MnCl2, 0.1 mg/ml BSA, 5% glycerol, 0.1 mg/ml salmon sperm DNA, 30 C, 30 min; recombinant protein; residues 1-163; protein details: N-terminal His (pET28a) and FLAG (DYKDDDDK); label: 32P; probe letters rebuilt from the primers and the genome

Binding result, binds:
GGAATTCGCCTTGTTGATCTCGTCAGCGACCGGGCGCAGGCCCGCCAGCCGCAGGAAGTAGTCGATGTTCTCGCGCGCGGTCAGGTGCTCGTACAGCGCCACGTTCTCGGGAATGTAGGCGATGGCGCGCCGCACCTCGGCGGGCTCCGACGCAGGATCGCGGCCGACCACGCGGACGCGTCCGGCGCTGGGGCGGACAAAGCCGAGGATCGCCTGCAGGGTGGTCGACTTCCCCGCGCCGTTGCCGCCGAGCAGCCCGTAGACCTCTCCGGCCCTGACCGTCAGGGCCAGGTGGTCGATCACGGCGCGATCACCGTAACGCACCACGAGATCTGCGATCTCGATCGCTTTGTCGCCATCCACGGTCTTCACGCCACCCTCTTGAGCCTCTGCGGCGCTGCTTGCGCCATCAAGTGATGTTATATCATAACAATTGCCTTGACCGTCGATCAAGCCCTCGCCTATTCGACCGCCCCAACCCAGACCGCCGTTCTCCAGTGAGATCCAGACGGATCC (double strand) [znuK/znuGHI (CC1517/CC1518) promoter], GGAATTCTTCGCGCGCCGAAAGTGACGCCTTCGTCGATCGGGTTATGGCCCACGAAGCCCAAAATGGCTTCGGCTTCTGGGTGGTCGAGCGCAAGGCGGACGTCCGCCTTGTCGGCATGACCGGCGTCTGGTGGGTCCCGCCCGCGATGAACATGCCCGACACGACCGAGATCGGTTGGCGCTTTCTGCCCGAGGTCTGGGGCCAGGGCTACGCCACCGAAGCCGCCACGGCCGCCCTGGCCTATGGCTTCGACGTATTGAGGCTGCCGGAGATCATCGCCTTTACGGCCAGATCCAACCTCGCGTCCCAGGCGGTGATGCGCCGGATCGGCATGACGCCCGCGCCGGCGCGCGATTTCCTGCATCCCAGACTGGCGGAGGGCGATCCGCTGCGGCCTCATGTGACGTTCGAGGCGCATCCTCAAGCCGGTCGCGACGGCGACTGAGGCTATCCGCCCACGGACCGACAAGAAGTTCTCCCGCGAAGTGAAAGCGGATTGACGGGAAGATACGTTATTTCATAACAGTCTCCCTAGCAGTCTCTAGGCGGTCGCTCCCCCGACCGCGCATCTCGTGGTTGGATCCG (double strand) [znuL (CC0214) promoter], TATGAATTCTCGAGCTTTTCGACCACCAGCAGGTCGCCGGCTTGAACCCGGTACTGCTTGCCGCCGGTTTTGATCACCGCGTACATAGGTTAGCGCCTTAAAAACGTGCGTTCGCAAAATAGGGAACGCCCGCTCGGAAACCCGGCGGGCGAAGAGGGCGCGACTTATACAGCCCAAGGCTCGGGAGTCAACGGCGTAGCGGCGGATTCAGCCGAGGCGCGCGACGAAAGCACACAAGAGGGCGGGTACCCTCTGGAATGTTACTTTATAACACGCTATATGCCCTTCCGTGACCTCGCCCTTCTTCGCCTCGATCGCCGTCACCGCCTTTGCGGTCGCCTTTCTGCACGCCGCGCTGCCGACTCACTGGCTGCCGTTCGTGCTGGTCGGGATCCATA (double strand) [zrpW (CC0320) promoter]
